The text below walks through data of publication PMC9617877.

Chains of the proteins cited; added tags and fusions are not shown. Lines headed by an entry give the natural chain unless they say otherwise; changes in a name come on top. Residues count along the entry.
UniProt P27361: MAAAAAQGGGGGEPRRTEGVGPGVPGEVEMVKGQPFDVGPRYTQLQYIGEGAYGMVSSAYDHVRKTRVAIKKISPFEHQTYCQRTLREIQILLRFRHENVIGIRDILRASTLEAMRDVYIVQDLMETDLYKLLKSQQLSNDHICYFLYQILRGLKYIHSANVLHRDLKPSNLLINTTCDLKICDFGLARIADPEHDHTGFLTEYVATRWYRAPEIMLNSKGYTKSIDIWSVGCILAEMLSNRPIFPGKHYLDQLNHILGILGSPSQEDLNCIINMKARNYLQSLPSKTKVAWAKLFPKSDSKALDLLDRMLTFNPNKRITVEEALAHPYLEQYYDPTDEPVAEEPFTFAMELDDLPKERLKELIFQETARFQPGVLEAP
UniProt Q09472: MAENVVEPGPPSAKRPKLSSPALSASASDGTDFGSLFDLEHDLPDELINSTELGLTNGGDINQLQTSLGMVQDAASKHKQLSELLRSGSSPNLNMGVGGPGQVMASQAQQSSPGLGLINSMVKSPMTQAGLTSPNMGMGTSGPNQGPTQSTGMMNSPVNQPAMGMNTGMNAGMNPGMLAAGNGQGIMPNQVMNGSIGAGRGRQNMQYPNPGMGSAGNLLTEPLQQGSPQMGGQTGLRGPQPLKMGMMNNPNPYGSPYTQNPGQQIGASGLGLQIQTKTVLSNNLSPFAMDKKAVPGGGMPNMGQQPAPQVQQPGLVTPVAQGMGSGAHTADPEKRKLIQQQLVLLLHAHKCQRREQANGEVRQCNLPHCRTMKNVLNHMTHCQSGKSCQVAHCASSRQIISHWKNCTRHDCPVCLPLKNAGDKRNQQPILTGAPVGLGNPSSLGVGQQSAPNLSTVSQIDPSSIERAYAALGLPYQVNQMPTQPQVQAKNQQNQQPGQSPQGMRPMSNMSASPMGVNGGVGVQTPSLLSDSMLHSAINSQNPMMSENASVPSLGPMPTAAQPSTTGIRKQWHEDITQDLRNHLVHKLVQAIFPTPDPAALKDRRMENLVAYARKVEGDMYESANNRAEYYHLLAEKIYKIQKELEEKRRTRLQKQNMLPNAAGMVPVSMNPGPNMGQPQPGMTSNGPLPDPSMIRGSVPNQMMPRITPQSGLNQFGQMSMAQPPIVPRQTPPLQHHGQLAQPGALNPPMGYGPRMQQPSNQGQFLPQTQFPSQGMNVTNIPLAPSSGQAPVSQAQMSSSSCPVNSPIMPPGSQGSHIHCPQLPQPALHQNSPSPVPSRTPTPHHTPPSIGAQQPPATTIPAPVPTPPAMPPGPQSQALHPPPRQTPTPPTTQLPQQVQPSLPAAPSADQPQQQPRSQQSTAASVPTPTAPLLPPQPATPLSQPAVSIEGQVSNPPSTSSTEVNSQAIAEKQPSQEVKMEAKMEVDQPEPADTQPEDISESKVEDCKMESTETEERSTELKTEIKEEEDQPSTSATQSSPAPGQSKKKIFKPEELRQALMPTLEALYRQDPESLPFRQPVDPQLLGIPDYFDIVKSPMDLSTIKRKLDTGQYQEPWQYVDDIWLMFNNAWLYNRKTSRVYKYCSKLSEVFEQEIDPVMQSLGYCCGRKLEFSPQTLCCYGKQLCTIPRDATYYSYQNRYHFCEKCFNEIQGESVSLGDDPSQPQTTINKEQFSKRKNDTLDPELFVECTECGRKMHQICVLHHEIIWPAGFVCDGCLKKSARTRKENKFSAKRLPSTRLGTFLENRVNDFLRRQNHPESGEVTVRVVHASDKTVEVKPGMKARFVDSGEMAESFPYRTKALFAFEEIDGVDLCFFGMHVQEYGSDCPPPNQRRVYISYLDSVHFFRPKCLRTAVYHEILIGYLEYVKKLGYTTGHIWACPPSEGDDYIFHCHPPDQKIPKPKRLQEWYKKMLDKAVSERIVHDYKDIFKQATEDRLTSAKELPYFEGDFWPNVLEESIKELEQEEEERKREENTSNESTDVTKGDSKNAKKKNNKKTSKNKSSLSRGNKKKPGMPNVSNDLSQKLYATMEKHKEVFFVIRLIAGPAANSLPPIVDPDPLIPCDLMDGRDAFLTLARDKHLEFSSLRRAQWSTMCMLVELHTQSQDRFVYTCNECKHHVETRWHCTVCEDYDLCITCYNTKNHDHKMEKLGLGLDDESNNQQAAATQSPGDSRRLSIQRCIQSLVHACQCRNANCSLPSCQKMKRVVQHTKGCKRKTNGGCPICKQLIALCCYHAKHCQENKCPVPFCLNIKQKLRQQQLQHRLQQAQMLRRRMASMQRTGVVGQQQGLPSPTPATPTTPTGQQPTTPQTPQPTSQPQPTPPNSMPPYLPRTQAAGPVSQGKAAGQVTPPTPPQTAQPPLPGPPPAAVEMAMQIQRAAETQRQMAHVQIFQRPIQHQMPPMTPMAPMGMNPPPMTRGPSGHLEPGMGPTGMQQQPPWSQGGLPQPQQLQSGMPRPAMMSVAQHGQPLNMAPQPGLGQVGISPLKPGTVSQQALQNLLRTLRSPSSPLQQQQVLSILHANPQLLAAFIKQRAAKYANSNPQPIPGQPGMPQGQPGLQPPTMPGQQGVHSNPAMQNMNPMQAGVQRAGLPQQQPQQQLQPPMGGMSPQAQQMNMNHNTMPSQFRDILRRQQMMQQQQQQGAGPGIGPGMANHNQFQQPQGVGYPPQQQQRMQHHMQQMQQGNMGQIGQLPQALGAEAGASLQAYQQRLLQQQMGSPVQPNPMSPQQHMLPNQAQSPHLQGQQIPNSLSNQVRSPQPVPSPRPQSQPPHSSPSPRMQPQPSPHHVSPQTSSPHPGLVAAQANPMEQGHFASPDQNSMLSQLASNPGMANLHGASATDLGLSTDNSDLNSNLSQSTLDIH
UniProt P05412: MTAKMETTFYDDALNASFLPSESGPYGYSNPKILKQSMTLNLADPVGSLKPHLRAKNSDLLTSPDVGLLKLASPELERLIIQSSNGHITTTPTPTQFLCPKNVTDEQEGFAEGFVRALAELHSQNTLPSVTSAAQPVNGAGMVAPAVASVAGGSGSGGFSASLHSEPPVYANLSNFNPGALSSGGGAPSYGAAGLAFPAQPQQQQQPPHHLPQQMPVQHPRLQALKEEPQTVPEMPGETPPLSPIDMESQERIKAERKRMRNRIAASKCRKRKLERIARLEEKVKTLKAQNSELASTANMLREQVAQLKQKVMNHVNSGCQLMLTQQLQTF
UniProt Q13586, residues 23-685: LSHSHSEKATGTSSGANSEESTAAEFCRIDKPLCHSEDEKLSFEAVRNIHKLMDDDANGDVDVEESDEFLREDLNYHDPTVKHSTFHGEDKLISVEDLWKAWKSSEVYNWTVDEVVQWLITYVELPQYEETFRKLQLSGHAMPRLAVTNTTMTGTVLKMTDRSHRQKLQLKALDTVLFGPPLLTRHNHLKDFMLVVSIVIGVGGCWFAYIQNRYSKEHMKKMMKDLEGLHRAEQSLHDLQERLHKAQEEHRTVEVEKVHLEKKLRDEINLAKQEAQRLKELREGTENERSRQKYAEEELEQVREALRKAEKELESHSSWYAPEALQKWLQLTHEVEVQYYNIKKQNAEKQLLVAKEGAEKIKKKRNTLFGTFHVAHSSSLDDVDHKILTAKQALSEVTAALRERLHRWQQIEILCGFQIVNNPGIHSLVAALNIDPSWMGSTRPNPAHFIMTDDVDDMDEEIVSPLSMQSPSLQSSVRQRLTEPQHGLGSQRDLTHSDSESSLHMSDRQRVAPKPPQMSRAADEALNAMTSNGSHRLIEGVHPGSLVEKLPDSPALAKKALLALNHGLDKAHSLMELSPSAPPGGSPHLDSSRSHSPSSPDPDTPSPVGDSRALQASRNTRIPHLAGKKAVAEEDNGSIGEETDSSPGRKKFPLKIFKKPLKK

Assay [1] has as its target BirA*-ERK1 (ERK1 fused to the promiscuous R118G form of the biotin ligase BirA, Flag-tagged) (UniProt P27361). Briefly: proximity labelling; BioID in HEK293 cells transiently transfected with BirA*-ERK1, BirA*-ERK2 or BirA*-GFP (control); biotin 50 µM, 24 h; RIPA lysis, streptavidin-agarose, on-bead trypsin, MS; SAINT score >= 0.80, BFDR <= 0.05, Log2 FC >= 1; ERK1 and ERK2 results combined.

Assay [2] addresses BirA*-ERK2 (ERK2 fused to the promiscuous R118G form of the biotin ligase BirA, Flag-tagged) (UniProt P28482). Described as above.

These are yes or no findings as the source states them, for the method shown. In cells and extracts the contact can be indirect. These calls come from enrichment with a bait or labelling near it, and not all partners need be listed.

As for EP300 (from UniProt Q09472 1-2414), the binding result in assay [1] and in assay [2] was “binds” in each case.

For the molecule JUN (from UniProt P05412 1-331), the binding result in assay [1] and in assay [2] was “binds” each time.

Regarding STIM1 (from UniProt Q13586 23-685), the binding result in assay [1] and in assay [2] was “binds” in each case.

B1: GAB1 (protein, UniProt Q13480 1-694)
chain: MSGGEVVCSGWLRKSPPEKKLKRYAWKRRWFVLRSGRLTGDPDVLEYYKNDHAKKPIRIIDLNLCQQVDAGLTFNKKEFENSYIFDINTIDRIFYLVADSEEEMNKWVRCICDICGFNPTEEDPVKPPGSSLQAPADLPLAINTAPPSTQADSSSATLPPPYQLINVPPHLETLGIQEDPQDYLLLINCQSKKPEPTRTHADSAKSTSSETDCNDNVPSHKNPASSQSKHGMNGFFQQQMIYDSPPSRAPSASVDSSLYNLPRSYSHDVLPKVSPSSTEADGELYVFNTPSGTSSVETQMRHVSISYDIPPTPGNTYQIPRTFPEGTLGQTSKLDTIPDIPPPRPPKPHPAHDRSPVETCSIPRTASDTDSSYCIPTAGMSPSRSNTISTVDLNKLRKDASSQDCYDIPRAFPSDRSSSLEGFHNHFKVKNVLTVGSVSSEELDENYVPMNPNSPPRQHSSSFTEPIQEANYVPMTPGTFDFSSFGMQVPPPAHMGFRSSPKTPPRRPVPVADCEPPPVDRNLKPDRKVKPAPLEIKPLPEWEELQAPVRSPITRSFARDSSRFPMSPRPDSVHSTTSSSDSHDSEENYVPMNPNLSSEDPNLFGSNSLDGGSSPMIKPKGDKQVEYLDLDLDSGKSTPPRKQKSSGSGSSVADERVDYVVVDQQKTLALKSTREAWTDGRQSTESETPAKSVK
With B1, the binding result in assay [1] and in assay [2] was “binds” throughout.
